Measured values: patent US20260232818A1, “PHARMACEUTICAL COMPOSITIONS COMPRISING PROTEIN COMPLEXES” (Onchilles Pharma, Inc., priority 2023, published 2026)
Results are given in words; binding and its absence hold for the method and conditions named. Some binding calls cover weakened binding; strength is not graded here.

Sequences of proteins named here, by UniProt entry; tags and fusion partners are left off. A change or cut given only in a name is not applied to a line headed by its entry.
UniProt P00772: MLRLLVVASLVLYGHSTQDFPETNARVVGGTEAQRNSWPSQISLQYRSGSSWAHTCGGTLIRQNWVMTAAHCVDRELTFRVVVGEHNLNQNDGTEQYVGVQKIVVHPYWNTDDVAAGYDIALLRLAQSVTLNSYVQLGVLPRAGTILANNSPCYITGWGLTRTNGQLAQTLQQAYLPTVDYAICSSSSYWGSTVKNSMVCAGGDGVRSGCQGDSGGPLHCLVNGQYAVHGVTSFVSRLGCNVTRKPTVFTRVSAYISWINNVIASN

Key:
[1] = molecular target: PPE protein 'Mutant F' (MutF, SEQ ID NO: 5) (porcine) (UniProt P00772); experiment: enzyme activity after freeze/thaw cycles (figure legend)
[2] = molecular target: PPE protein 'Mutant F' (MutF, SEQ ID NO: 5) (porcine) (UniProt P00772); experiment: cation exchange and size exclusion chromatography of the 1:2 mix; fractions tested for activity, protein concentration and A1AT protection
[3] = molecular target: PPE protein 'Mutant F' (MutF, SEQ ID NO: 5) (porcine) (UniProt P00772); experiment: activity and A1AT protection in lysates of treated tumor cells
[4] = molecular target: PPE protein 'Mutant F' (MutF, SEQ ID NO: 5) (porcine) (UniProt P00772); experiment: enzyme activity and A1AT protection over a pH range (figure legend)

binding [1]: binds | binding [2]: binds | binding [3]: binds | binding [4]: binds
B1: alpha-2-macroglobulin (A2M) (protein)
chain: SVSGKPQYMVLVPSLLHTETTEKGCVLLSYLNETVTVSASLESVRGNRSLFTDLEAENDVLHCVAFAVPKSSSNEEVMFLTVQVKGPTQEFKKRTTVMVKNEDSLVFVQTDKSIYKPGQTVKFRVVSMDENFHPLNELIPLVYIQDPKGNRIAQWQSFQLEGGLKQFSFPLSSEPFQGSYKVVVQKKSGGRTEHPFTVEEFVLPKFEVQVTVPKIITILEEEMNVSVCGLYTYGKPVPGHVTVSICRKYSDASDCHGEDSQAFCEKFSGQLNSHGCFYQQVKTKVFQLKRKEYEMKLHTEAQIQEEGTVVELTGRQSSEITRTITKLSFVKVDSHFRQGIPFFGQVRLVDGKGVPIPNKVIFIRGNEANYYSNATTDEHGLVQFSINTTNVMGTSLTVRVNYKDRSPCYGYQWVSEEHEEAHHTAYLVFSPSKSFVHLEPMSHELPCGHTQTVQAHYILNGGTLLGLKKLSFYYLIMAKGGIVRTGTHGLLVKQEDMKGHFSISIPVKSDIAPVARLLIYAVLPTGDVIGDSAKYDVENCLANKVDLSFSPSQSLPASHAHLRVTAAPQSVCALRAVDQSVLLMKPDAELSASSVYNLLPEKDLTGFPGPLNDQDNEDCINRHNVYINGITYTPVSSTNEKDMYSFLEDMGLKAFTNSKIRKPKMCPQLQQYEMHGPEGLRVGFYESDVMGRGHARLVHVEEPHTETVRKYFPETWIWDLVVVNSAGVAEVGVTVPDTITEWKAGAFCLSEDAGLGISSTASLRAFQPFFVELTMPYSVIRGEAFTLKATVLNYLPKCIRVSVQLEASPAFLAVPVEKEQAPHCICANGRQTVSWAVTPKSLGNVNFTVSAEALESQELCGTEVPSVPEHGRKDTVIKPLLVEPEGLEKETTFNSLLCPSGGEVSEELSLKLPPNVVEESARASVSVLGDILGSAMQNTQNLLQMPYGCGEQNMVLFAPNIYVLDYLNETQQLTPEIKSKAIGYLNTGYQRQLNYKHYDGSYSTFGERYGRNQGNTWLTAFVLKTFAQARAYIFIDEAHITQALIWLSQRQKDNGCFRSSGSLLNNAIKGGVEDEVTLSAYITIALLEIPLTVTHPVVRNALFCLESAWKTAQEGDHGSHVYTKALLAYAFALAGNQDKRKEVLKSLNEEAVKKDNSVHWERPQKPKAPVGHFYEPQAPSAEVEMTSYVLLAYLTAQPAPTSEDLTSATNIVKWITKQQNAQGGFSSTQDTVVALHALSKYGAATFTRTGKAAQVTIQSSGTFSSKFQVDNNNRLLLQQVSLPELPGEYSMKVTGEGCVYLQTSLKYNILPEKEEFPFALGVQTLPQTCDEPKAHTSFQISLSVSYTGSRSASNMAIVDVKMVSGFIPLKPTVKMLERSNHVSRTEVSSNHVLIYLDKVSNQTLSLFFTVLQDVPVRDLKPAIVKVYDYYETDEFAIAEYNAPCSKDLGNA
